Non-standard residues stand in square brackets, D forms with d. Residues, ends and D or L forms follow the SMILES beside them. ξ: configuration not given here. ξOrn(N(OH)Ac) = CC(=O)N(O)CCCC(N)C(=O)O
Experiments:
[1] = Sensory tests on iron-fortified cookies; conditions: 25 panelists; for Sensory evaluation (taste pleasant): cookies
[2] = Sensory tests on iron-fortified sake; conditions: 25 panelists; for Sensory evaluation (taste pleasant): sake

Structure (SMILES): CC(=O)N([O-])CCCC1NC(=O)CNC(=O)C(CO)NC(=O)C(CO)NC(=O)C(CCCN([O-])C(C)=O)NC(=O)C(CCCN([O-])C(C)=O)NC1=O.[Fe+3] (centres unmarked) [Ferrichrysin, ferrichrysin] (cyclo(G[ξOrn(N(OH)Ac)][ξOrn(N(OH)Ac)][ξOrn(N(OH)Ac)]SS); configuration not given here)
- Amount added to cookies giving good sensory evaluations [1]: ≤ 3 mg/g
- Sensory evaluation (taste pleasant) ([1]; ferrichrysin 0.05 mg/g): +++ (20 or more panelists found the taste pleasant)
- Sensory evaluation (taste pleasant) ([1]; ferrichrysin 0.1 mg/g): +++ (20 or more panelists found the taste pleasant)
- Sensory evaluation (taste pleasant) ([1]; ferrichrysin 0.2 mg/g): +++ (20 or more panelists found the taste pleasant)
- Sensory evaluation (taste pleasant) ([1]; ferrichrysin 0.5 mg/g): +++ (20 or more panelists found the taste pleasant)
- Sensory evaluation (taste pleasant) ([1]; ferrichrysin 1.5 mg/g): ++ (7 to 19 panelists found the taste pleasant)
- Sensory evaluation (taste pleasant) ([1]; ferrichrysin 3.0 mg/g): + (1 to 6 panelists found the taste pleasant)
- Sensory evaluation (taste pleasant) ([1]; ferrichrysin 5.0 mg/g): − (no panelists found the taste pleasant)
- Sensory evaluation (taste pleasant) ([1]; ferrichrysin 10 mg/g): − (no panelists found the taste pleasant)
- Sensory evaluation (taste pleasant) ([1]; ferrichrysin 20 mg/g): − (no panelists found the taste pleasant)
- Amount added to sake giving good sensory evaluations [2]: ≤ 1 mg/mL
- Sensory evaluation (taste pleasant) ([2]; ferrichrysin 0.01 mg/ml): +++ (20 or more panelists found the taste pleasant)
- Sensory evaluation (taste pleasant) ([2]; ferrichrysin 0.05 mg/ml): +++ (20 or more panelists found the taste pleasant)
- Sensory evaluation (taste pleasant) ([2]; ferrichrysin 0.1 mg/ml): +++ (20 or more panelists found the taste pleasant)
- Sensory evaluation (taste pleasant) ([2]; ferrichrysin 0.2 mg/ml): +++ (20 or more panelists found the taste pleasant)
- Sensory evaluation (taste pleasant) ([2]; ferrichrysin 0.5 mg/ml): ++ (7 to 19 panelists found the taste pleasant)
- Sensory evaluation (taste pleasant) ([2]; ferrichrysin 1 mg/ml): + (1 to 6 panelists found the taste pleasant)
- Sensory evaluation (taste pleasant) ([2]; ferrichrysin 2 mg/ml): − (no panelists found the taste pleasant)
- Sensory evaluation (taste pleasant) ([2]; ferrichrysin 5 mg/ml): − (no panelists found the taste pleasant)
- Sensory evaluation (taste pleasant) ([2]; ferrichrysin 10 mg/ml): − (no panelists found the taste pleasant)

Source: patent US20080113899A1, “Iron Supplement and Utilization of the Same” (GEKKEIKAN SAKE CO., LTD., priority 2004, published 2008)
